The target of the assay is T1, SUPPRESSOR OF NPR1-1, CONSTITUTIVE 1 (SNC1)-Myc (Arabidopsis thaliana) (UniProt O23530).
T1 sequence: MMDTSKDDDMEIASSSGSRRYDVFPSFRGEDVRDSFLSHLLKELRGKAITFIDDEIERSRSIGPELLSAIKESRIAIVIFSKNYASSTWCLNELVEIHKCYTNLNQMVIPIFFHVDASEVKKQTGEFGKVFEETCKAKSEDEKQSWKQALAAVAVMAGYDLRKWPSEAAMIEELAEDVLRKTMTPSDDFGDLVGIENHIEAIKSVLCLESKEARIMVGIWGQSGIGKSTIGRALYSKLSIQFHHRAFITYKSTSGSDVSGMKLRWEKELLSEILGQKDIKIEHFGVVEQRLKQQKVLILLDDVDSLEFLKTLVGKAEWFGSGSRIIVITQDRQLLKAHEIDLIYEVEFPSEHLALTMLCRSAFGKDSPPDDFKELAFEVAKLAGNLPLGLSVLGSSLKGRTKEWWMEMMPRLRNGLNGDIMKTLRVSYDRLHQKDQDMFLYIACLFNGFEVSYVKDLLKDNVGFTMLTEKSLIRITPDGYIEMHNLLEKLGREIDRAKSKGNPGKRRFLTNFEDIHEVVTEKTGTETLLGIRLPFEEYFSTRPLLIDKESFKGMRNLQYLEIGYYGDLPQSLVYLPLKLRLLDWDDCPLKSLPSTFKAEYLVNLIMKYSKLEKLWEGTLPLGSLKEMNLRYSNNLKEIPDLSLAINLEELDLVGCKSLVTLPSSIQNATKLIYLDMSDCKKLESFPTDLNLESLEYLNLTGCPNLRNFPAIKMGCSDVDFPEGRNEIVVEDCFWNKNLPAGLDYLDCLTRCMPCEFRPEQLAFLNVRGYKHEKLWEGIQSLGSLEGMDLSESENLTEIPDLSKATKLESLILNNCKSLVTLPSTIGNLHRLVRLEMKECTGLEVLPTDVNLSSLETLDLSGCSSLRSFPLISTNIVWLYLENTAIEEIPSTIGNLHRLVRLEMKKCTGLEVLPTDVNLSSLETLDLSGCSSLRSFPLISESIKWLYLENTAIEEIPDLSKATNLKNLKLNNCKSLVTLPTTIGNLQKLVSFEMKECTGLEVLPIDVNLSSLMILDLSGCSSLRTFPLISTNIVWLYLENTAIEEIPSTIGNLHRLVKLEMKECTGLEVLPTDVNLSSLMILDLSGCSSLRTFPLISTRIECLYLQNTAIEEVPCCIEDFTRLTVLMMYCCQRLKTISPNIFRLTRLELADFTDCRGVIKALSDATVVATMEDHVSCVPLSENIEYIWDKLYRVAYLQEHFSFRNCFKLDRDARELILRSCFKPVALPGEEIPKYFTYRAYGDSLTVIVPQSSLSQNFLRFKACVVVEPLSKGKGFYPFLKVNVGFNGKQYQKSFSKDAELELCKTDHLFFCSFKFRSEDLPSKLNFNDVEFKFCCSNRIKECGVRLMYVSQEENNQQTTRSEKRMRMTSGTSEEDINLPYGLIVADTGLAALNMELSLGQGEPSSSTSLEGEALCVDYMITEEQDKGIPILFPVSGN
In words: affinity purification with mass spectrometry.

Protein sequences, listed by entry. Tags and fused reporters are not part of them.
UniProt Q42479: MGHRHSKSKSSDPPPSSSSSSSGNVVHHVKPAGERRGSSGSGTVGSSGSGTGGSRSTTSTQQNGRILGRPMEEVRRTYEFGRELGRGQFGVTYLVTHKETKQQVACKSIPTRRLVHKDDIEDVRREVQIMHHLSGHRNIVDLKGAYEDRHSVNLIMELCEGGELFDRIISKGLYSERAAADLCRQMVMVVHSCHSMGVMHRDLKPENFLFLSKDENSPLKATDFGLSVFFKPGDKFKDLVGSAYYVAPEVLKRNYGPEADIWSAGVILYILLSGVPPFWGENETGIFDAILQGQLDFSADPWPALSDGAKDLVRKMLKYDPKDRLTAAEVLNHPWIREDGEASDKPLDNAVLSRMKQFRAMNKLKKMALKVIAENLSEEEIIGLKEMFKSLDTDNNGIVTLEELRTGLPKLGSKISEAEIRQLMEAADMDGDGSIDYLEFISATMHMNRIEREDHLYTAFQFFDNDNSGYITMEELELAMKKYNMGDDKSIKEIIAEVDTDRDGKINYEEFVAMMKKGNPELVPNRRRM

No constants are given. Whether binding was seen depends on the method and setting. In cells and extracts the contact can be indirect. A yes stands for co-enrichment or nearness to the bait. Other partners may have been found. Where a sequence is shown, tags or fusion partners need not be part of it.

As to “Ca2+-dependent protein kinase 3 (CPK3), endogenous (from UniProt Q42479 1-529) (enzyme)”, the binding entry was “binds”.

For the origin of these results see article doi:10.1101/2025.04.09.647920.
